Drawing on PMC10528058, this text covers binding for two substances.

The chains behind the UniProt entries cited, without tags or fusion partners. Residues count along the entry.
UniProt P01024, residues 23-1663: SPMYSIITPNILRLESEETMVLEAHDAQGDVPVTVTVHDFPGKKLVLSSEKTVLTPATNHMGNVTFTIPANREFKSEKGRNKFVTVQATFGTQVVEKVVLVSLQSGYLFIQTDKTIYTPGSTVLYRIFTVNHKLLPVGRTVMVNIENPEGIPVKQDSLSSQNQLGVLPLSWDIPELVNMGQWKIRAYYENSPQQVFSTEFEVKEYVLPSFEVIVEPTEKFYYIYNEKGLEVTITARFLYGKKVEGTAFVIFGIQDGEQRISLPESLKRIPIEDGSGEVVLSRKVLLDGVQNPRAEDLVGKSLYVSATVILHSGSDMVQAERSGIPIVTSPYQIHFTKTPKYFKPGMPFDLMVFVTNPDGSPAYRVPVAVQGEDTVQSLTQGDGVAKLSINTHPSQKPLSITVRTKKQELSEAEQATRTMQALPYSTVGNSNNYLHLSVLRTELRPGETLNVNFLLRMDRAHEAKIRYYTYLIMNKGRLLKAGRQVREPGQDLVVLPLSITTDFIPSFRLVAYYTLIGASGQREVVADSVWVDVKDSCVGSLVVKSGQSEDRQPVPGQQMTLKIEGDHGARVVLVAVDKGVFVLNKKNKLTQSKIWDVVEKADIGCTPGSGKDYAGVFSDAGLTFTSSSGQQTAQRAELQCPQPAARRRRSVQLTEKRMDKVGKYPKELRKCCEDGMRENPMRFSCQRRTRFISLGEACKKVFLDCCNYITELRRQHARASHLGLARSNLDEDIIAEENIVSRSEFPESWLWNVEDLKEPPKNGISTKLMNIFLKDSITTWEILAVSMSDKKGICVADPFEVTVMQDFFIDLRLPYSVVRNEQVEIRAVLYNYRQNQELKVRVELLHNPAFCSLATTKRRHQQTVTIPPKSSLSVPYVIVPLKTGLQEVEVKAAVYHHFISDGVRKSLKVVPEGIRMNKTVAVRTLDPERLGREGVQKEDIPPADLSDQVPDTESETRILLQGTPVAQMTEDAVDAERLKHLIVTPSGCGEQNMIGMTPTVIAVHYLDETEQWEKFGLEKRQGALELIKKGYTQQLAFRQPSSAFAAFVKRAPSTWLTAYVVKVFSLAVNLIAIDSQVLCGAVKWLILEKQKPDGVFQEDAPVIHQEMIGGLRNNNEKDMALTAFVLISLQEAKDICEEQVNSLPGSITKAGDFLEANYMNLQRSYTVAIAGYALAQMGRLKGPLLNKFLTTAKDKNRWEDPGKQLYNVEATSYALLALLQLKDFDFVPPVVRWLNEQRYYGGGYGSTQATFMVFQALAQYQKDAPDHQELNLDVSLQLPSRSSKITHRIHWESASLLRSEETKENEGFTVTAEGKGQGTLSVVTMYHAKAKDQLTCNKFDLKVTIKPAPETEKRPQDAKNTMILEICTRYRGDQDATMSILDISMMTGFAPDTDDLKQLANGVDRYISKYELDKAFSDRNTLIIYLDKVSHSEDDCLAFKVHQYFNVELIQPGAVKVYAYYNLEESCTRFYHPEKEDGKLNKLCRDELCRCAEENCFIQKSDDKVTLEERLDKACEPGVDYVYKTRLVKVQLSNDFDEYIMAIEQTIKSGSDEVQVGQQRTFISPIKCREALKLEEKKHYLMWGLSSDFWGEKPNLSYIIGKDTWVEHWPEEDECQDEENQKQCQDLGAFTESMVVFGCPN
UniProt P01027, residues 25-1663: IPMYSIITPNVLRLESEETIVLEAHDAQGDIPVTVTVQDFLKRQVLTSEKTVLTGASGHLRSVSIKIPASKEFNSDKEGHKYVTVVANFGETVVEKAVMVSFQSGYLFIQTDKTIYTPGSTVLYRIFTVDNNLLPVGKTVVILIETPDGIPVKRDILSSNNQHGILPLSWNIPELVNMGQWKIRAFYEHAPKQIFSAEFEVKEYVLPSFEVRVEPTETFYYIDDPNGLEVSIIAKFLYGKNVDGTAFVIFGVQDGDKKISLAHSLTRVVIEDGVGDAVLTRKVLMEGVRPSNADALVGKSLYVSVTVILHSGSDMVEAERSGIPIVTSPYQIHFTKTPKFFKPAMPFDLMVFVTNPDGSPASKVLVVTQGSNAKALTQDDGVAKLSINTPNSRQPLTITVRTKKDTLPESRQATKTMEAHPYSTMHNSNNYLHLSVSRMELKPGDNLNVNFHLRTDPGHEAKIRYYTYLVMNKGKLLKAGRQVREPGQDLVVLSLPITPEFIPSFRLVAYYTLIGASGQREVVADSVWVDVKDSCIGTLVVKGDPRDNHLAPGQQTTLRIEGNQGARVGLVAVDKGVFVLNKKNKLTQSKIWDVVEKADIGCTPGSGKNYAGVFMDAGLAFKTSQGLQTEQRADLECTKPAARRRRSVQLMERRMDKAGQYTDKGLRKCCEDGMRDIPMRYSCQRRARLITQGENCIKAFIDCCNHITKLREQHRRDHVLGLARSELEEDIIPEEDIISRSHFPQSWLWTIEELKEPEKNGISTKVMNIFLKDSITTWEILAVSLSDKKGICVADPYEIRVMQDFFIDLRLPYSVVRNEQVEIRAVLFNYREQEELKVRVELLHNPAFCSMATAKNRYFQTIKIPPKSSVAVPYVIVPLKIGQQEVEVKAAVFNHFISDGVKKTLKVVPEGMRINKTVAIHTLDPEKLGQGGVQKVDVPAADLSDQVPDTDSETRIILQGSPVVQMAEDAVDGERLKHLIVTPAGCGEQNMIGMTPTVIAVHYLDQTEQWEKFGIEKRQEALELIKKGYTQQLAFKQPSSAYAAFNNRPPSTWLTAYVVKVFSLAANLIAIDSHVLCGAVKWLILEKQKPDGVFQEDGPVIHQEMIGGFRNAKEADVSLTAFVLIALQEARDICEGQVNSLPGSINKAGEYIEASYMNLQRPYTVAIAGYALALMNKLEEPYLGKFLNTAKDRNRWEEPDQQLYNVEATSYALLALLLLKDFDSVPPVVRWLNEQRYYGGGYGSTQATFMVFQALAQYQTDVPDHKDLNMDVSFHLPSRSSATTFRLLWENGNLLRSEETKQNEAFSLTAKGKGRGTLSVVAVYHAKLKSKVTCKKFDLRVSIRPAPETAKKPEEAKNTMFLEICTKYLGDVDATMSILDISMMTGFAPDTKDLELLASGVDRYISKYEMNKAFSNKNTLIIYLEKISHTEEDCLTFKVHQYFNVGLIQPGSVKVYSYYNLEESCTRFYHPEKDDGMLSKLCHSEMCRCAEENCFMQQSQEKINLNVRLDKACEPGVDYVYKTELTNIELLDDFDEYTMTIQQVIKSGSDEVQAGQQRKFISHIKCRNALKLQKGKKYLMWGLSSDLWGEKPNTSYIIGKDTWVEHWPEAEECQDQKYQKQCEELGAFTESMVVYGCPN
UniProt P99999: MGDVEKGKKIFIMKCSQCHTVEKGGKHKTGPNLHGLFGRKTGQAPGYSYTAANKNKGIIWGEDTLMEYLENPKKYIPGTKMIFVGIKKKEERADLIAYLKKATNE
UniProt P62897: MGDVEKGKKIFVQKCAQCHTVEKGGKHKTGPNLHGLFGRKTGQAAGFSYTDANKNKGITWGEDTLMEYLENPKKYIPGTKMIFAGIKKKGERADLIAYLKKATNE

For assay [1], the target named is Flag-pro-C3 (full-length single-chain human pro-C3 with a Flag-tag at its C-terminal) (human) (UniProt P01024). Kind of assay: pull-down; anti-Flag antibody beads incubated with transfected 293 T cell lysate 3 h at 4 °C, washed once, then incubated with lysate of H2O2-treated AC16 cells 3 h at 4 °C, washed 4 times, eluted; Western blot; IP buffer 0.2% NP-40, 10% glycerol, 10 mM Tris-HCl pH 8.0, 100 mM KCl. (In general: In western blotting, separated proteins are transferred to a membrane and probed.)

Assay [2] concerns the target complement C3 (mouse, in heart lysate or cytosolic fraction of WT mice after I/R) (mouse (endogenous in C57BL/6 heart)) (UniProt P01027). Kind of assay: ELISA; sandwich ELISA: plate coated with polyclonal anti-C3 Ab captures the C3 complex from heart cytosolic fractions of WT and C3-/- mice (1 h ischemia/3 h reperfusion); detected with anti-cytochrome c Ab.

Results are given in words; binding and its absence hold for the method and conditions named. For some assays here: In cells and extracts the contact can be indirect. Some binding calls cover weakened binding; strength is not graded here.

As for “cytochrome c (human, AC16 cell lysate) (from UniProt P99999 1-105)”, the binding entry in assay [1] was “no binding”.
As for “cytochrome c (mouse, heart) (from UniProt P62897 1-105)”, in assay [2], the binding entry is listed as “binds”.
